{"source": "PubChem BioAssay AID445", "about": "(National Center for Advancing Translational Sciences (NCATS), 2006)", "note": "The list shows a part of the results. Further columns of the screen follow, without active or inactive calls. The list favours compounds with an active or inconclusive main result. Potencies come from curve fits of mixed quality, noted in brackets.", "data": [{"assay": "IkB Signaling", "conditions": "ABC-DLBCL IkBa-CBG/CBR dual luciferase ratio (green luciferase fused to IkBa over red control in OCI-Ly3 lymphoma cells), 4 h; measured here: control luc red channel unless noted", "summary_of_the_method": "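In this assay, an IκBα–CBG68 fusion accumulates when IKK-driven degradation is blocked; native CBR normalizes for cell number. OCI-Ly3 cells were treated 4 h with compound and doxycycline, then green and red light read after Chroma-Glo addition.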", "values": [{"smiles": "CCOc1ccccc1CC1C(=O)Nc2ccc(Br)cc21", "note": "(stereo not drawn)", "AC50": "31.6 µM [falling, single point]"}, {"smiles": "CCC(C)NC(=O)CCc1c(C)nc2cc(-c3ccc(OC)cc3OC)nn2c1C", "note": "(stereo not drawn)", "AC50": "1 µM [falling, full curve]"}, {"smiles": "COc1ccccc1-c1cc2nc(C)c(CCC(=O)Nc3cc(C)ccc3C)c(C)n2n1", "AC50": "1 µM [falling, full curve]"}, {"smiles": "CCc1cccc(NC(=O)c2ccc(CNS(=O)(=O)c3ccc4c(c3)C(C)(C)C(=O)N4C)cc2)c1", "AC50": "12.6 µM [falling, partial curve]"}, {"smiles": "COc1ccc(-n2nnc(-c3nc(-c4cccs4)no3)c2N)cc1", "AC50": "0.0251 µM [rising, full curve, poor fit]"}, {"smiles": "CCOC(=O)c1cnc2ccc(Cl)cc2c1Nc1ccc(N2CCOCC2)cc1", "AC50": "12.6 µM [falling, partial curve]"}, {"smiles": "O=C(Nc1ccc(C(=O)N2CCN(c3ccccc3)CC2)cc1)c1nsc2ccccc12", "AC50": "0.316 µM [falling, full curve]"}, {"smiles": "CCCN(CCC)CCNC(=O)C1CCN(c2nc3ccc(CC)cc3s2)CC1", "AC50": "15.8 µM [falling, partial curve]"}, {"smiles": "CCOC(=O)Cn1c(=O)oc2cc(S(=O)(=O)NCCCc3ccccc3)ccc21", "AC50": "15.8 µM [falling, partial curve]"}, {"smiles": "CC(C)CC(C(=O)Nc1oc(-c2ccco2)c(-c2ccco2)c1C#N)N1C(=O)c2ccccc2C1=O", "note": "(stereo not drawn)", "AC50": "15.8 µM [falling, partial curve]"}, {"smiles": "O=C(NCc1ccccc1Cl)c1cc2cccc3c2n1CCS3", "AC50": "31.6 µM [falling, partial curve]"}, {"smiles": "c1ccc(N2CCN(c3ccccc3)C2c2cccs2)cc1", "AC50": "2.51 µM [falling, partial curve]"}, {"smiles": "CC(N)=NCCCC[C@H](N)C(=O)O", "AC50": "2 µM [rising, partial curve] [measured here: IkB-luc green channel]"}, {"smiles": "Cc1ccnc(NS(=O)(=O)c2ccc(NC(=O)c3nc(SC(C)C)ncc3Cl)cc2)n1", "AC50": "0.1 µM [falling, full curve]"}, {"smiles": "Cc1ccc(S(=O)(=O)N2CCC(n3c(C)nc4cccnc43)CC2)c(C)c1", "AC50": "31.6 µM [falling, partial curve]"}, {"smiles": "CCOc1ccc(CCNC(=O)c2cc3sc(CC)cc3n2C)cc1OCC", "AC50": "31.6 µM [falling, single point]"}, {"smiles": "Cc1[nH]c2ccccc2c1SCCNC(=O)c1ccccc1F", "AC50": "39.8 µM [falling, single point]"}, {"smiles": "Cc1ccc2oc(-c3cc(NC(=O)/C=C/c4ccco4)ccc3Cl)nc2c1", "AC50": "15.8 µM [falling, partial curve]"}, {"smiles": "CC(=O)Nc1nonc1-c1nc2ccccc2n1Cc1ccccc1Br", "AC50": "0.501 µM [rising, full curve]"}, {"smiles": "COc1ccc(NC(=O)CCc2c(C)nc3c(-c4ccc(F)cc4)c(C)nn3c2C)c(OC)c1", "AC50": "10 µM [falling, partial curve, poor fit]"}, {"smiles": "Cc1ccccc1CN1CCCN(CC(=O)Nc2ccc3c(c2)OCCO3)S1(=O)=O", "AC50": "31.6 µM [falling, single point]"}, {"smiles": "COc1ccc(C2=[N+]([O-])C(C)(C)N(O)C2(C)C)cc1", "AC50": "20 µM [rising, partial curve]"}, {"smiles": "CC(NC(=O)c1ccco1)C(c1cccs1)N1CCN(c2ccccc2F)CC1", "note": "(stereo not drawn)", "AC50": "20 µM [falling, partial curve]"}, {"smiles": "CCOc1ccc(NC(=O)c2c(NC(=O)c3cccs3)sc3c2CCC(C(C)(C)C)C3)cc1", "note": "(stereo not drawn)", "AC50": "10 µM [falling, partial curve]"}, {"smiles": "COc1ccccc1NC(=O)c1cc(S(=O)(=O)NCCC2=CCCCC2)ccc1F", "AC50": "12.6 µM [falling, partial curve]"}, {"smiles": "O=C(NCc1cccc(Cl)c1)C1CCCN(c2ncnc3onc(-c4ccc(F)cc4)c23)C1", "note": "(stereo not drawn)", "AC50": "7.94 µM [falling, partial curve]"}, {"smiles": "CCn1c(=O)cc(SCC(=O)N2CCN(c3ccccc3F)CC2)c2ccccc21", "AC50": "15.8 µM [falling, partial curve]"}, {"smiles": "O=C(CSc1nnc2[nH]c(=O)cc(-c3ccccc3)n12)Nc1cc(C(F)(F)F)ccc1Cl", "AC50": "15.8 µM [falling, partial curve]"}, {"smiles": "Cc1cc(C)cc(N2CCn3c2nc2c3c(=O)n(CCCc3ccccc3)c(=O)n2C)c1", "AC50": "6.31 µM [falling, partial curve]"}, {"smiles": "COc1ccc2[nH]c3nc(SC(C)C)nnc3c2c1", "AC50": "6.31 µM [falling, partial curve]"}, {"smiles": "Cc1ccc(CNC(=O)CCCn2c(=O)c3ccccc3n(Cc3ccc(Cl)cc3)c2=O)cc1", "AC50": "3.16 µM [falling, single point]"}, {"smiles": "Cc1ccc(CNC(=O)CCC(=O)N2CCSc3ccccc32)cc1", "AC50": "39.8 µM [falling, single point]"}, {"smiles": "CCOc1ccc(-c2noc(CSc3nnc(Cc4ccccc4)n3-c3cccc(C)c3)n2)cc1", "AC50": "12.6 µM [falling, partial curve]"}, {"smiles": "Cc1ccc(-c2nc3cc(C(C)C)ccc3o2)cc1NC(=O)c1cc([N+](=O)[O-])ccc1N1CCOCC1", "AC50": "1 µM [falling, full curve]"}, {"smiles": "CNC(=O)C1CCN(c2nc3ccccc3nc2C(F)(F)F)CC1", "AC50": "12.6 µM [rising, partial curve]"}, {"smiles": "COc1ccc(N(CC(=O)Nc2nc3ccc(C)cc3s2)S(=O)(=O)c2c(C)nn(C)c2C)cc1", "AC50": "6.31 µM [falling, partial curve]"}, {"smiles": "CCc1ccc(NC(=O)N2CCN(C(=O)c3nsc4ccccc34)CC2)cc1", "AC50": "39.8 µM [falling, single point]"}, {"smiles": "O=C(Nc1ccc(SC(F)F)cc1)c1ccc2nccnc2c1", "AC50": "3.16 µM [falling, full curve]"}, {"smiles": "COc1cc(Cl)c(C)cc1NC(=O)c1cnc2c(-c3cccc(C)c3)c(C)nn2c1C", "AC50": "12.6 µM [falling, single point]"}, {"smiles": "Cc1ccsc1CN1CCc2nc(N3CCN(c4ccccc4F)CC3)ncc2C1", "AC50": "12.6 µM [falling, partial curve]"}, {"smiles": "CNC(=O)c1ccc(CSc2nc3ccncc3n2Cc2ccc(C)cc2)cc1", "AC50": "31.6 µM [falling, partial curve]"}, {"smiles": "Cc1ccn2c(Nc3ccccc3C)c(-c3ccccc3)nc2c1", "AC50": "39.8 µM [falling, single point]"}, {"smiles": "COc1ccc(CCNc2ncnc3c2oc2ccccc23)cc1OC", "AC50": "3.98 µM [falling, full curve]"}, {"smiles": "O=C(Nc1ccc2nc(SCC(=O)N3CCOCC3)sc2c1)c1ccccc1Cl", "AC50": "20 µM [falling, partial curve]"}, {"smiles": "Cc1cccc(OCC(=O)Nc2ccccc2OCc2cc(=O)n3cc(C)ccc3n2)c1", "AC50": "0.0251 µM [falling, full curve]"}, {"smiles": "Cc1ccc(NCc2cccn2-c2nnc(N3CCC(C(=O)NCc4ccc(F)cc4)CC3)s2)cc1", "AC50": "5.01 µM [falling, partial curve]"}, {"smiles": "CCc1cccc(C)c1NS(=O)(=O)c1ccc(-c2cc(C)no2)s1", "AC50": "0.631 µM [rising, full curve]"}, {"smiles": "Cc1cccc(NC(=O)c2c(N)sc3c2CCC(C)C3)c1", "note": "(stereo not drawn)", "AC50": "15.8 µM [falling, partial curve]"}, {"smiles": "O=C(O)CCc1ccc(-c2ccc(Br)cc2)n1Cc1ccco1", "AC50": "12.6 µM [falling, partial curve]"}, {"smiles": "Cc1ccccc1Nc1c(-c2ccc(N3CCOCC3)cc2)nc2ccc(Cl)cn12", "AC50": "39.8 µM [falling, single point]"}, {"smiles": "N#Cc1nc(/C=C/c2ccc(F)cc2)oc1NC1CCCCC1", "AC50": "3.16 µM [rising, single point]"}, {"smiles": "CCOc1ccc(CCNC(=O)CN2CCN(Cc3ccc(F)cc3)C2=O)cc1OCC", "AC50": "20 µM [falling, single point]"}, {"smiles": "COc1ccc(C(=O)NCC(c2ccco2)S(=O)(=O)c2cccs2)cc1", "note": "(stereo not drawn)", "AC50": "0.631 µM [falling, partial curve]"}, {"smiles": "COc1ccc(N(C)C(=O)C2CCN(S(=O)(=O)c3cc(Br)cc4c3N(C(C)=O)CC4)CC2)cc1", "AC50": "25.1 µM [falling, single point]"}, {"smiles": "O=C(Nc1ccc2nc(SCC(=O)N3CCOCC3)sc2c1)c1ccc(Cl)cc1", "AC50": "7.94 µM [falling, partial curve]"}, {"smiles": "CCN(Cc1ccccc1)C(=O)C(CC(C)C)NS(=O)(=O)c1ccc2c(c1)CCN2C(C)=O", "note": "(stereo not drawn)", "AC50": "20 µM [falling, single point]"}, {"smiles": "Cc1cccc(N2CCN(C(=O)c3nn(C)c4c3CS(=O)(=O)c3ccccc3-4)CC2C)c1", "note": "(stereo not drawn)", "AC50": "25.1 µM [falling, single point]"}, {"smiles": "Cc1ccc(-n2c(=O)c3ccccc3n(CC(=O)Nc3cccc(C(F)(F)F)c3)c2=O)cc1", "AC50": "25.1 µM [falling, single point]"}, {"smiles": "O=C(Cn1c(=O)n(-c2ccccc2)c(=O)c2sc3ccccc3c21)NC1CCCC1", "AC50": "25.1 µM [falling, single point]"}, {"smiles": "COc1cccc(N2CCN(c3ncnc4onc(-c5ccc(Cl)cc5)c34)CC2)c1", "AC50": "3.16 µM [rising, partial curve]"}, {"smiles": "Cc1ccc(C)c(Nc2nn3c(=O)c4ccc(C(=O)NCc5cccs5)cc4nc3s2)c1", "AC50": "31.6 µM [falling, single point]"}, {"smiles": "O=C(CN1C(=O)CC(c2ccc(F)cc2)=Nc2ccccc21)NCc1ccccc1Cl", "AC50": "25.1 µM [falling, single point]"}, {"smiles": "CSc1ccc(CNC(=O)Cn2ccc3cc(S(=O)(=O)N4CCCC4)ccc32)cc1", "AC50": "15.8 µM [falling, partial curve]"}]}]}
